PubChem BioAssay AID493246 | Drosophila RNAi Screening Center – 2011

- Test: 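Genome-wide search for dsRNAs that reduce cell number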 (primary screen)
- System: Drosophila Kc and S2R+ cells
- Knock-down reagent: long dsRNA against Drosophila genes
- Detection: 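Cell number per well after knock-down, printed as raw plate values; calls were based on per-plate z-scores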
- Reading the numbers: Kc cell number and S2R+ cell number: higher = more cells remaining
- Active means: 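Counted as a hit if cell number falls by a z-score of at least 3 within its plate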
The screen tested about 21,000 reagents; shown is a random part of those that have a named target and a result. Over the whole deposit, 429 (2%) were called active. 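Values are raw and not normalised between plates; calls rest on per-plate z-scores that were not deposited.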 No sequences are given here. Not given: the amount of reagent, the time to read-out.

Against dsf [DRSC03524], the values are Kc cell number, rep 1 = 1.38e6; Kc cell number, rep 2 = 1.34e6; S2R+ cell number, rep 1 = 1.03e6; S2R+ cell number, rep 2 = 1.21e6; inactive.
For RhoGAP54D [DRSC06990] the deposit lists Kc cell number, rep 1 = 1.58e6; Kc cell number, rep 2 = 1.70e6; S2R+ cell number, rep 1 = 1.15e6; S2R+ cell number, rep 2 = 1.30e6; inactive.
acj6 [DRSC20304] showed Kc cell number, rep 1 = 6.37e5; S2R+ cell number, rep 1 = 8.78e5; inactive.
For Sgt [DRSC02812] the deposit lists Kc cell number, rep 1 = 1.21e6; Kc cell number, rep 2 = 1.38e6; S2R+ cell number, rep 1 = 1.18e6; S2R+ cell number, rep 2 = 1.30e6; inactive.
CG1703 [DRSC19764] scored Kc cell number, rep 1 = 5.41e5; S2R+ cell number, rep 1 = 8.23e5; inactive.
Sou [DRSC04356] scored Kc cell number, rep 1 = 1.58e6; Kc cell number, rep 2 = 1.77e6; S2R+ cell number, rep 1 = 1.39e6; S2R+ cell number, rep 2 = 3.97e5; inactive.
Against Drsl2 [DRSC08160], the values are Kc cell number, rep 1 = 1.56e6; Kc cell number, rep 2 = 1.45e6; S2R+ cell number, rep 1 = 9.66e5; S2R+ cell number, rep 2 = 1.12e6; inactive.
For CG14260 [DRSC14755], the entry reads Kc cell number, rep 1 = 1.46e6; Kc cell number, rep 2 = 1.47e6; S2R+ cell number, rep 1 = 1.07e6; S2R+ cell number, rep 2 = 1.17e6; inactive.
Depletion of CG10919 [DRSC14283] came out at: Kc cell number, rep 1 = 1.44e6; Kc cell number, rep 2 = 1.55e6; S2R+ cell number, rep 1 = 1.23e6; S2R+ cell number, rep 2 = 1.33e6; inactive.
After knock-down of Srrm234 [DRSC07955], the screen gave Kc cell number, rep 1 = 1.49e6; Kc cell number, rep 2 = 1.48e6; S2R+ cell number, rep 1 = 9.28e5; S2R+ cell number, rep 2 = 1.17e6; inactive.
With knock-down of Srrm234 [DRSC08606], the record shows Kc cell number, rep 1 = 1.27e6; Kc cell number, rep 2 = 1.32e6; S2R+ cell number, rep 1 = 1.18e6; S2R+ cell number, rep 2 = 1.18e6; inactive.
With knock-down of CG12605 [DRSC08286], the screen gave Kc cell number, rep 1 = 1.43e6; Kc cell number, rep 2 = 1.29e6; S2R+ cell number, rep 1 = 9.51e5; S2R+ cell number, rep 2 = 1.19e6; inactive.
With knock-down of l(1)sc [DRSC18789], the record shows Kc cell number, rep 1 = 1.57e6; Kc cell number, rep 2 = 1.58e6; S2R+ cell number, rep 1 = 1.01e6; S2R+ cell number, rep 2 = 1.16e6; inactive.
After knock-down of Prosalpha3T [DRSC15226], the screen gave Kc cell number, rep 1 = 1.59e6; Kc cell number, rep 2 = 1.55e6; S2R+ cell number, rep 1 = 9.48e5; S2R+ cell number, rep 2 = 1.14e6; inactive.
After knock-down of CG9304 [DRSC04538] the results were Kc cell number, rep 1 = 1.38e6; Kc cell number, rep 2 = 1.50e6; S2R+ cell number, rep 1 = 1.27e6; S2R+ cell number, rep 2 = 4.43e5; inactive.
With knock-down of CR13656 [DRSC13705] the results were Kc cell number, rep 1 = 1.39e6; Kc cell number, rep 2 = 1.64e6; S2R+ cell number, rep 1 = 1.01e6; S2R+ cell number, rep 2 = 1.12e6; inactive.
After knock-down of CR13656 [DRSC14656] the results were Kc cell number, rep 1 = 1.39e6; Kc cell number, rep 2 = 1.38e6; S2R+ cell number, rep 1 = 1.00e6; S2R+ cell number, rep 2 = 1.08e6; inactive.
After knock-down of CG3038 [DRSC18618] the results were Kc cell number, rep 1 = 1.49e6; Kc cell number, rep 2 = 1.51e6; S2R+ cell number, rep 1 = 1.06e6; S2R+ cell number, rep 2 = 1.18e6; inactive.
For Sec16 [DRSC19788] the deposit lists Kc cell number, rep 1 = 1.63e6; Kc cell number, rep 2 = 1.50e6; S2R+ cell number, rep 1 = 9.77e5; S2R+ cell number, rep 2 = 1.09e6; inactive.
For Sec16 [DRSC19858], the values are Kc cell number, rep 1 = 1.60e6; Kc cell number, rep 2 = 1.51e6; S2R+ cell number, rep 1 = 1.08e6; S2R+ cell number, rep 2 = 1.14e6; inactive.
Silencing of rdx [DRSC14526] resulted in: Kc cell number, rep 1 = 1.37e6; Kc cell number, rep 2 = 1.37e6; S2R+ cell number, rep 1 = 8.26e5; S2R+ cell number, rep 2 = 9.18e5; inactive.
For rdx [DRSC16580], the entry reads Kc cell number, rep 1 = 1.22e6; Kc cell number, rep 2 = 1.47e6; S2R+ cell number, rep 1 = 1.00e6; S2R+ cell number, rep 2 = 1.06e6; inactive.

A stretch taken from the entries so far, for reference:
Sou [DRSC04356] → Kc cell number, rep 1 = 1.58e6; Kc cell number, rep 2 = 1.77e6; S2R+ cell number, rep 1 = 1.39e6; S2R+ cell number, rep 2 = 3.97e5; call = inactive
Drsl2 [DRSC08160] → Kc cell number, rep 1 = 1.56e6; Kc cell number, rep 2 = 1.45e6; S2R+ cell number, rep 1 = 9.66e5; S2R+ cell number, rep 2 = 1.12e6; call = inactive
